Experimental data from patent US20240301063A1 (SHANDONG NEW TIME PHARMACEUTICAL, published 2024).
No constants are given. Whether binding was seen depends on the method and setting. Some results given as binding are weak or reduced against the parent protein; the word gives no strength.

Target: cynomolgus monkey BCMA protein (cynomolgus monkey)
Assay: bridging ELISA, coated antigen

B1: bispecific antibody AP163 (bispecific antibody)
chain: QVQLVQSGAEVKKPGSSVKVSCKASGGTFSNYWMHWVRQAPGQGLEWMGATYRGHSDTYYNQKFKGRVTITADKSTSTAYMELSSLRSEDTAVYYCARGAIYDGYDVLDNWGQGTLVTVSSGGGGSGGGGSGGGGSDIQMTQSPSSLSASVGDRVTITCSASQDISNYLNWYQQKPGKAPKLLIYYTSNLHSGVPSRFSGSGSGTDFTLTISSLQPEDFATYYCQQYRKLPWTFGQGTKLEIKGGGGGGSGGGGSGGGGSSSSSKAPPPSEVQLLESGGGLVQPGGSLKLSCAASGFTFNTYAMNWVRQAPGKGLEWVARIRSKYNNYATYYADSVKDRFTISRDDSKNTAYLQMNNLKTEDTAVYYCVRHGNFGNSYVSWFAYWGQGTLVTVSSGGGGSGGGGSGGGGSELVVTQEPSLTVSPGGTVTLTCRSSTGAVTTSNYANWVQQKPGQAPRGLIGGTNKRAPGTPARFSGSLLGGKAALTLSGVQPEDEAEYYCALWYSNLWVFGGGTKLTVLDKTHTCPPCPAPEAAGGPSVFLFPPKPKDQLMISRTPEVTCVVVDVSHEDPEVKFNWYVDGVEVHNAKTKPREEQYASTYRVVSVLTVLHQDWLNGKEYKCKVSNKALPASIEKTISKAKGQPREPQVYTLPPSRDELTKNQVSLTCLVKGFYPSDIAVEWESNGQPENNYKTTPPVLDSDGSFFLYSKLTVDKSRWQQGNVFSCSVLHEALHNHYTQKSLSLSPG
notes: human IgG1 Fc with L234A, L235A, T250Q, N297A, P331S, M428L and K447 deleted (EU); also called anti-BCMA×CD3 bispecific antibody
In the case of B1, the binding is reported as “binds”.
